Consider three molecules from publication PMC9825192.

Amino acid sequences for entries named in this document (tags omitted).
UniProt Q09XV5: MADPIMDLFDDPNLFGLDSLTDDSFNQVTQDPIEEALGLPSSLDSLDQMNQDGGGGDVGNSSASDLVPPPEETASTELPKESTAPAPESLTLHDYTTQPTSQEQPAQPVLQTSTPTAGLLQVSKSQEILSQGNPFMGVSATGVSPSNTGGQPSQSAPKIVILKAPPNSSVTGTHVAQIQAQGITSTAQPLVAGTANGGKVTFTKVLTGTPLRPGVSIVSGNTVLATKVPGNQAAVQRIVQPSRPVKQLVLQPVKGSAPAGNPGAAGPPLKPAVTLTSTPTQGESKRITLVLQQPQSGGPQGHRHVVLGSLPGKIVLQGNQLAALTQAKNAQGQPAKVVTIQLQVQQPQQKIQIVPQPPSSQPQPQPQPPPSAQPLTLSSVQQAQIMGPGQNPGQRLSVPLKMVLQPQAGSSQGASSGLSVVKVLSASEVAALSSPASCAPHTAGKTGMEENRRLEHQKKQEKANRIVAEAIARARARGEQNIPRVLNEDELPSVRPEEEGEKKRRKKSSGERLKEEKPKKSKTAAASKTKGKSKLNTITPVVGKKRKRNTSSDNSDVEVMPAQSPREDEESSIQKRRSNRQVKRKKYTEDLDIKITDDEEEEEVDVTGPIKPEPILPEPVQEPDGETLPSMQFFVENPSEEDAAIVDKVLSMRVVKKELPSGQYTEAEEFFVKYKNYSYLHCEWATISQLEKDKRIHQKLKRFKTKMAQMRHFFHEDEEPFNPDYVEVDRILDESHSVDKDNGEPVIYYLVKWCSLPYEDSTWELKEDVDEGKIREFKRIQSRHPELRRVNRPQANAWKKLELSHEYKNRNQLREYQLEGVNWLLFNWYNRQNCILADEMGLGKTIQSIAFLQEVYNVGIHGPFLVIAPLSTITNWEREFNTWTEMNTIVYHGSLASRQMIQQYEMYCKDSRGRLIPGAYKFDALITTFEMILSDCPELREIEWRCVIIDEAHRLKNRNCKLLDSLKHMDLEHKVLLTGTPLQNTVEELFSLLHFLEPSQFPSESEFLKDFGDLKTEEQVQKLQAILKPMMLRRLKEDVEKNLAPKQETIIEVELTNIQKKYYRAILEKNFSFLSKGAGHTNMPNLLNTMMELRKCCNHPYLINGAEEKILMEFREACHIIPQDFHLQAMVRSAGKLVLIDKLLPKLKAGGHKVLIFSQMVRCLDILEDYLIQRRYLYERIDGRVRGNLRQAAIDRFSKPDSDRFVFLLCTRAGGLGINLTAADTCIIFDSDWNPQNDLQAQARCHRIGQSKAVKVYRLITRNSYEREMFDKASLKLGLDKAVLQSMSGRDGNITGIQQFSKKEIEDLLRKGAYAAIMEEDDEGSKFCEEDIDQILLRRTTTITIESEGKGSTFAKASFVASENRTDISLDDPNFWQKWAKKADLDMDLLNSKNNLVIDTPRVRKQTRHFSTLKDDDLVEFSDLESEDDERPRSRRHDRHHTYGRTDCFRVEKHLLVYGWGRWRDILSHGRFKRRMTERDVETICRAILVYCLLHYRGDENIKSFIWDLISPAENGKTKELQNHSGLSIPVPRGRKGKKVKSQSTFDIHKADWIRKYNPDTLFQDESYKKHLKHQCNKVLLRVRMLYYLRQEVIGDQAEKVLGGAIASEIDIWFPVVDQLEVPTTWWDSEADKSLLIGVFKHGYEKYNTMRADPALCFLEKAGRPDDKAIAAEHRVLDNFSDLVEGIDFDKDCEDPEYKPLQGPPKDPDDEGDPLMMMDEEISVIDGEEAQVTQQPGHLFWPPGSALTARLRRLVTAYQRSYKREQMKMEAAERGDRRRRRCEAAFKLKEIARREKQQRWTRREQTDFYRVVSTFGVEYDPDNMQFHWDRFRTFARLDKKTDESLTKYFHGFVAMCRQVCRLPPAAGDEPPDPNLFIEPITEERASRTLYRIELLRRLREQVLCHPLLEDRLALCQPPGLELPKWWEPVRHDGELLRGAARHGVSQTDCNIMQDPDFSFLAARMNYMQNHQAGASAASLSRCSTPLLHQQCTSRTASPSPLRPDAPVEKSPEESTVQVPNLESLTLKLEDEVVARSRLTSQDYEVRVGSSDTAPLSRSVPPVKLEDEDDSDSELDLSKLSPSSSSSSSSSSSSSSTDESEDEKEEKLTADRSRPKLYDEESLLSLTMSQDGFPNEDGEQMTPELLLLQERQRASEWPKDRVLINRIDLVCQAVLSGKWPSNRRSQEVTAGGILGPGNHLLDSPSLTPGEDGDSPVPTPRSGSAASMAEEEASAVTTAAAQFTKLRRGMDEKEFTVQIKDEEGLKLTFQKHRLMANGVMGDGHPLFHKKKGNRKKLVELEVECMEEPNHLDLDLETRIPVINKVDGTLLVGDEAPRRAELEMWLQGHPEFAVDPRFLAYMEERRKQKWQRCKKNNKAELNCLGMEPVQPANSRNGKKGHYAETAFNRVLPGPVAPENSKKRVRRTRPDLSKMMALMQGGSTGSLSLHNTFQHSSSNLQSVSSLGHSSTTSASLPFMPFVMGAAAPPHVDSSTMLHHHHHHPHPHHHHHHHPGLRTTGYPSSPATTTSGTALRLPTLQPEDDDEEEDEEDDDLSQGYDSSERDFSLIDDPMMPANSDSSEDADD
UniProt Q9P2D1: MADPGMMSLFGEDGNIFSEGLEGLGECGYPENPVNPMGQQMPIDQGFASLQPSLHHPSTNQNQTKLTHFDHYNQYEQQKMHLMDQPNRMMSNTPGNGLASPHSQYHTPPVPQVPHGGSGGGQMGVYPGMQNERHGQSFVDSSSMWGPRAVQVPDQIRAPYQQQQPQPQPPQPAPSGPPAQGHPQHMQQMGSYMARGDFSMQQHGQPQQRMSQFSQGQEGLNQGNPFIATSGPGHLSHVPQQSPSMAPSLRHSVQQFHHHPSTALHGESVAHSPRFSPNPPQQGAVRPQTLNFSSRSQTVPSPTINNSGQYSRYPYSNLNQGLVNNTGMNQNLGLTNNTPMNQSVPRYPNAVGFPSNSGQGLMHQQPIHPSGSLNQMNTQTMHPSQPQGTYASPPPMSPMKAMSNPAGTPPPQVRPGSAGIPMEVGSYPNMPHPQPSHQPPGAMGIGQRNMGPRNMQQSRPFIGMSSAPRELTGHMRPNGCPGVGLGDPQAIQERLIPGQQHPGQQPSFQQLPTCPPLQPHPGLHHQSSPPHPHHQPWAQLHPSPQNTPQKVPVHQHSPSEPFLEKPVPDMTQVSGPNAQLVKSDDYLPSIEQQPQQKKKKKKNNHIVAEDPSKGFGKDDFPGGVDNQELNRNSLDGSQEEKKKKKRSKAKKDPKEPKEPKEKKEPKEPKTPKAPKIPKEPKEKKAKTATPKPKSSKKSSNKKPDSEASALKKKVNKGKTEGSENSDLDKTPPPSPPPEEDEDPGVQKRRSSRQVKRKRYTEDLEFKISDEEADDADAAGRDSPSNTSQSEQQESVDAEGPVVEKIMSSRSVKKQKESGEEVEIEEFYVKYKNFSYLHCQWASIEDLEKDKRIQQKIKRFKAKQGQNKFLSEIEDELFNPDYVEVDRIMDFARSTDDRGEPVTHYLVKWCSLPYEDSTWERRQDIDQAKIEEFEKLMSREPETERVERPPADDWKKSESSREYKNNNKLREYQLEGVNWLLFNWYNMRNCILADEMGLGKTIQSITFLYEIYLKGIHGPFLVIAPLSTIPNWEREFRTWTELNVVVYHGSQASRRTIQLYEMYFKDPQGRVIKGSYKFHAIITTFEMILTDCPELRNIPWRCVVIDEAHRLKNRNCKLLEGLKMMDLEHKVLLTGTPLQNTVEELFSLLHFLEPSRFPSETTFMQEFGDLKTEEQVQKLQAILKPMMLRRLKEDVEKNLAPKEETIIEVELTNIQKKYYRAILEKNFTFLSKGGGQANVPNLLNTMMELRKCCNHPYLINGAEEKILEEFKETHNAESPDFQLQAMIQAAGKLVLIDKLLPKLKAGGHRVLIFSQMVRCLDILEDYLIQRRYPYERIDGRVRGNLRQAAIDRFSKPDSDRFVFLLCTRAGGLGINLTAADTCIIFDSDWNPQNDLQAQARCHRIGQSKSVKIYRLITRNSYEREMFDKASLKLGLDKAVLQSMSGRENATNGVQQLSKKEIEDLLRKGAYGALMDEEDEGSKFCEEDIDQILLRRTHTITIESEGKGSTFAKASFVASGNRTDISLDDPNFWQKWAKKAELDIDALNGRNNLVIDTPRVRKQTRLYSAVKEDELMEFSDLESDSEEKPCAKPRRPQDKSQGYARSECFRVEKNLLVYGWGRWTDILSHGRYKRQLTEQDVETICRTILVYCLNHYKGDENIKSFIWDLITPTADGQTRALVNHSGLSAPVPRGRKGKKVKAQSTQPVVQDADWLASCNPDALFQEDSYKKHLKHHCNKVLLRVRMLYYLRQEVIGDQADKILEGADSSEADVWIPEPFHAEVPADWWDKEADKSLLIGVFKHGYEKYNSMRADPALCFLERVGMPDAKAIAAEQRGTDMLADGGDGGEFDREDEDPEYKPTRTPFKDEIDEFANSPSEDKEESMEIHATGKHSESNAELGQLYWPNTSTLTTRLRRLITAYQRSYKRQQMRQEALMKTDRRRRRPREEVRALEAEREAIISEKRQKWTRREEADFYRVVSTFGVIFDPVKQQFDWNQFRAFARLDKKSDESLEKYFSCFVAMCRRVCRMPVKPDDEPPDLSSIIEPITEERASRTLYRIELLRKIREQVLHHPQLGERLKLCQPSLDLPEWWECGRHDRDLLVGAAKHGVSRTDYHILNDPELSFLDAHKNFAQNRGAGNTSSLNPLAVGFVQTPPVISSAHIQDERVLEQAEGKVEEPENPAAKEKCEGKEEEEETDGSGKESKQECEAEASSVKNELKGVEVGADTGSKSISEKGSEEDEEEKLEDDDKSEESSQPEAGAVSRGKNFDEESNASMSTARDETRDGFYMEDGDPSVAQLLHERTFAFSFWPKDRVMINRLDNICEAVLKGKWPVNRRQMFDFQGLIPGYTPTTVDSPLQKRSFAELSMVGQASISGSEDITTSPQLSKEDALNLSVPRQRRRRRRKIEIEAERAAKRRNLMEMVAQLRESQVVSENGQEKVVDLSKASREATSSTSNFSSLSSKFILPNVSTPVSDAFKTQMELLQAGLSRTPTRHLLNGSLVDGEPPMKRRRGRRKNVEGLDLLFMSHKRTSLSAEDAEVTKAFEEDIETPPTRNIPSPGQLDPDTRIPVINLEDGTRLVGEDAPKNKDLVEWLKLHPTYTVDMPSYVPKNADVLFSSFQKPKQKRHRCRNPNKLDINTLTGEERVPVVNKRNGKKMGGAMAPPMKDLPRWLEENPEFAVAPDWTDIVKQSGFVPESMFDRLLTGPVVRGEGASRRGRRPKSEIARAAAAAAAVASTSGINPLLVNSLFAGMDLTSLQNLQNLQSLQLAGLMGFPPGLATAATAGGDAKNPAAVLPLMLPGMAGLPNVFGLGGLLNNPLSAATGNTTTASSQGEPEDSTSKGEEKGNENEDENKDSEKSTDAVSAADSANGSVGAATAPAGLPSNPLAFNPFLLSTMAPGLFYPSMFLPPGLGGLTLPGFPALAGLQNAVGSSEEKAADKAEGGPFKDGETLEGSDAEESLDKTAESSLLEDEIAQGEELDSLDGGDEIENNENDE

No constants are given. Whether binding was seen depends on the method and setting. In cells and extracts the contact can be indirect. These calls come from enrichment with a bait or labelling near it, and not all partners need be listed.

Experiment [1] has as its target chromodomain helicase DNA-binding protein 8 (human (endogenous in iPSC-derived NPCs)) (UniProt Q9HCK8). In words: affinity purification with mass spectrometry; endogenous CHD8 immunoprecipitated from the hNPC nuclear fraction with two antibodies (#17 N-terminal, #18 C-terminal), rabbit IgG as control; LC-MS/MS; three biological replicates.
Experiment [2] has as its target Chd8 (mouse) (mouse (endogenous in mESCs)) (UniProt Q09XV5). Briefly: affinity purification with mass spectrometry; independent Chd8 MS analysis on mouse embryonic stem cells; no further details told.

For CHD7 (from UniProt Q9P2D1 1-2997), the binding result in experiment [1] is “binds”.

B1: heterogeneous nuclear ribonucleoprotein L (protein, UniProt P14866 1-589)
chain: MSRRLLPRAEKRRRRLEQRQQPDEQRRRSGAMVKMAAAGGGGGGGRYYGGGSEGGRAPKRLKTDNAGDQHGGGGGGGGGAGAAGGGGGGENYDDPHKTPASPVVHIRGLIDGVVEADLVEALQEFGPISYVVVMPKKRQALVEFEDVLGACNAVNYAADNQIYIAGHPAFVNYSTSQKISRPGDSDDSRSVNSVLLFTILNPIYSITTDVLYTICNPCGPVQRIVIFRKNGVQAMVEFDSVQSAQRAKASLNGADIYSGCCTLKIEYAKPTRLNVFKNDQDTWDYTNPNLSGQGDPGSNPNKRQRQPPLLGDHPAEYGGPHGGYHSHYHDEGYGPPPPHYEGRRMGPPVGGHRRGPSRYGPQYGHPPPPPPPPEYGPHADSPVLMVYGLDQSKMNCDRVFNVFCLYGNVEKVKFMKSKPGAAMVEMADGYAVDRAITHLNNNFMFGQKLNVCVSKQPAIMPGQSYGLEDGSCSYKDFSESRNNRFSTPEQAAKNRIQHPSNVLHFFNAPLEVTEENFFEICDELGVKRPSSVKVFSGKSERSSSGLLEWESKSDALETLGFLNHYQMKNPNGPYPYTLKLCFSTAQHAS
As to B1, the binding entry in experiment [1] was “binds”.

B2: hnRNPL (mouse) (protein, UniProt Q8R081 1-586)
chain: MSRRLLPRAEKRRRRLEQRQQPDEQLRRAGAMVKMAAAGGGGGGGRYYGGGNEGGRAPKRLKTENAGDQHGGGGGGGSGAAGGGGGENYDDPHKTPASPVVHIRGLIDGVVEADLVEALQEFGPISYVVVMPKKRQALVEFEDVLGACNAVNYAADNQIYIAGHPAFVNYSTSQKISRPGDSDDSRSVNSVLLFTILNPIYSITTDVLYTICNPCGPVQRIVIFRKNGVQAMVEFDSVQSAQRAKASLNGADIYSGCCTLKIEYAKPTRLNVFKNDQDTWDYTNPNLSGQGDPGSNPNKRQRQPPLLGDHPAEYGGPHGGYHSHYHDEGYGPPPPHYEGRRMGPPVGGHRRGPSRYGPQYGHPPPPPPPPDYGPHADSPVLMVYGLDQSKMNCDRVFNVFCLYGNVEKVKFMKSKPGAAMVEMADGYAVDRAITHLNNNFMFGQKMNVCVSKQPAIMPGQSYGLEDGSCSYKDFSESRNNRFSTPEQAAKNRIQHPSNVLHFFNAPLEVTEENFFEICDELGVKRPTSVKVFSGKSERSSSGLLEWDSKSDALETLGFLNHYQMKNPNGPYPYTLKLCFSTAQHAS
Consider B2, for which, in experiment [2], the binding result was “binds”.
